The other results are listed elsewhere or left out. Further columns of the screen follow, without active or inactive calls. The list favours compounds with an active or inconclusive main result. The note in brackets gives the kind of curve behind each potency; many fits are weak.
Test: qHTS Assay for Identifying the Cell-Membrane Permeable IMPase Inhibitors
Conditions: CHO-M1 cells, IP1 accumulation, HTRF TR-FRET ratio; measured here: donor channel 620 nm AC50

| Compound | AC50 |
| --- | --- |
| Nc1cc(C2CCCC2)nn1-c1ccccc1 | 0.0631 µM [falling, full curve, poor fit] |
| CC(c1ccccc1)N1C(=O)NC(NC(=O)c2cccnc2)(C(F)(F)F)C1=O (stereo not drawn) | 0.794 µM [falling, full curve] |
| C=CCC(=O)OCCCCCCOc1ccc(C(=O)O)cc1 | 31.6 µM [rising, partial curve, poor fit] |
| c1ccc2c(c1)Sc1ccccc1-n1cnnc1-2 | 5.01 µM [falling, single point] |
| CCn1c(SCC(=O)c2ccc(F)cc2)nnc1-c1ccoc1C | 0.224 µM [falling, full curve, poor fit] |
| Cc1ccc(/C=N/NC(=O)C(NC(=O)c2ccccc2)c2n[nH]c(=O)c3ccccc23)cc1 (stereo not drawn) | 0.1 µM [falling, full curve, poor fit] |
| CCCCCCCCS(=O)C1CCS(=O)(=O)C1 (stereo not drawn) | 0.01 µM [rising, full curve, poor fit] |
| CC1(C)OC(=O)C(=NNc2ccc(O)cc2)C(=O)O1 | 6.31 µM [falling, single point] |
| CCCCc1c(C)nc2ccc(Br)cc2c1SCCC#N | 35.5 µM [rising, single point] |
| CCOc1ccc(NC(=O)Cn2cc(C(=O)C3CC3)c3ccccc32)cc1 | 0.0631 µM [falling, full curve, poor fit] |
| Cc1occc1C(=O)NN=C1C2CC3CC(C2)CC1C3 | 5.62 µM [rising, single point] |
| COc1ccc(CCNC(=O)c2ccc3nc(-c4ccco4)c(-c4ccco4)nc3c2)cc1OC | 0.794 µM [falling, full curve] |
| CCOC(=O)c1[nH]c2ccc(Cl)cc2c1NC(=O)c1nonc1C | 0.0158 µM [falling, full curve, poor fit] |
| CCCOc1ccc(/C(O)=C2/C(=O)C(=O)N(CCN(CC)CC)C2c2ccncc2)cc1 (stereo not drawn) | 3.98 µM [falling, partial curve] |
| CCn1c(SC/C=C/c2ccccc2)nnc1-c1cnccn1 | 0.794 µM [falling, full curve] |
| Cc1sc2nc(CN(C(=O)c3cccs3)C3CCCC3)[nH]c(=O)c2c1C | 6.31 µM [rising, single point] |
| COc1ccnc(NCc2ccc(Cl)cc2)c1C#N | 31.6 µM [falling, single point] |
| Cc1ccc(C2C=C(c3ccc(Cl)cc3)Nc3nc(NC(=O)c4ccco4)nn32)cc1 (stereo not drawn) | 0.00316 µM [rising, full curve, poor fit] |
| CCOC(=O)c1sc(NC(=S)NC(=O)C2CC2)cc1C | 10 µM [rising, partial curve, poor fit] |
| O=C(CN(C(=O)c1ccco1)c1cccc(F)c1)NCc1ccc(F)cc1 | 0.02 µM [rising, full curve, poor fit] |
| Cc1ccc(-c2nc3ccccc3[nH]2)cc1NC(=O)c1sc2cc(Cl)ccc2c1Cl | 31.6 µM [rising, single point] |
| CCOC(=O)c1sc(NC(=O)c2cccnc2)nc1C | 31.6 µM [rising, single point] |

| Compound | AC50 |
| --- | --- |
| O=C(CCNc1ccc(Cl)c(C(F)(F)F)c1)c1ccco1 | 5.01 µM [falling, single point] |
| N#CC(C#N)=c1ccc2c(c1)NC1(CCCCC1)N=2 | 20 µM [falling, single point] |
| CC(=O)Nc1ccc(S(=O)(=O)Nc2cc(C)c(-n3nc4ccccc4n3)cc2O)cc1 | 35.5 µM [falling, single point] |
| CCN(CC)C(=O)c1scc2c1OCCO2 | 2 µM [falling, partial curve, poor fit] |
| COC(=O)c1[nH]c2ccc(F)cc2c1NC(=O)Nc1ccc(OC)cc1 | 15.8 µM [falling, partial curve, poor fit] |
| N#Cc1cc2c(nc1SCC(=O)Nc1sc3c(c1C#N)CCC3)CCCCC2 | 5.01 µM [falling, single point] |
| COc1ccccc1-n1c(SCC(=O)NC(C)(C)C)nnc1-c1ccco1 | 12.6 µM [falling, partial curve, poor fit] |
| Cc1nc2ccc3nc(NC(=O)c4ccc5c(c4)OCCO5)sc3c2s1 | 20 µM [rising, partial curve] |
| c1ccc2c(c1)CCN(Cc1nnnn1Cc1ccc3c(c1)OCO3)C2 | 15.8 µM [falling, single point] |
| CCCOc1ccc(-c2nn(-c3ccccc3)cc2/C=C2\SC(=S)N(C3CCS(=O)(=O)C3)C2=O)cc1 (stereo not drawn) | 0.0631 µM [rising, partial curve, poor fit] |
| Oc1[nH]c2ccccc2c1/C=N/N1CCCCC1 | 5.01 µM [falling, full curve, poor fit] |
| COc1cccc(-c2nnc(NC(=O)c3ccc(S(=O)(=O)N4CCOCC4)cc3)o2)c1 | 3.98 µM [falling, single point] |
| CC1(C)COC(c2cccn2Cc2ccccc2Cl)=N1 | 1.58 µM [falling, partial curve, poor fit] |
| Nc1nnc(-c2ccccc2)s1 | 31.6 µM [falling, single point] |
| COc1cccc(N=Nc2c(=O)[nH]n3c(=O)cc(C)[nH]c23)c1 | 12.6 µM [falling, partial curve] |
| O=C(O)CCC(=O)N1CCN(c2nc3ccccc3s2)CC1 | 35.5 µM [falling, single point] |
| COc1ccc(Br)cc1-c1noc(-c2ccncc2)n1 | 35.5 µM [rising, single point] |
| CCC(=O)NC(Nc1ncc(C)s1)(C(=O)OC)C(F)(F)F (stereo not drawn) | 0.0447 µM [falling, full curve, poor fit] |
| O=C(Nc1cc(C(F)(F)F)ccc1N1CCOCC1)c1cccc(F)c1 | 3.16 µM [falling, single point] |
| CC(C)(C)C(=O)NC1CCN(S(=O)(=O)c2ccccc2F)CC1 | 0.00398 µM [falling, full curve, poor fit] |
| COc1cc(CNc2nc(C)c([N+](=O)[O-])c(C)c2C#N)cc(OC)c1 | 1.78 µM [rising, full curve] |

Gathered by group: those above containing a tert-butyl group.

| Compound | AC50 |
| --- | --- |
| COc1ccccc1-n1c(SCC(=O)NC(C)(C)C)nnc1-c1ccco1 | 12.6 µM [falling, partial curve, poor fit] |
| CC(C)(C)C(=O)NC1CCN(S(=O)(=O)c2ccccc2F)CC1 | 0.00398 µM [falling, full curve, poor fit] |
